Laboratory results as given in article PMC10861631.
No constants are given. Whether binding was seen depends on the method and setting. Binding seen in cells or lysates may run through a third protein. Binding calls can cover weak binding; strength is not graded here.

By UniProt entry, the sequences of proteins in these tests, tags left out. Where a name states a change or a piece, a line headed by the entry shows the natural chain unless it says otherwise.
UniProt Q9JLU4: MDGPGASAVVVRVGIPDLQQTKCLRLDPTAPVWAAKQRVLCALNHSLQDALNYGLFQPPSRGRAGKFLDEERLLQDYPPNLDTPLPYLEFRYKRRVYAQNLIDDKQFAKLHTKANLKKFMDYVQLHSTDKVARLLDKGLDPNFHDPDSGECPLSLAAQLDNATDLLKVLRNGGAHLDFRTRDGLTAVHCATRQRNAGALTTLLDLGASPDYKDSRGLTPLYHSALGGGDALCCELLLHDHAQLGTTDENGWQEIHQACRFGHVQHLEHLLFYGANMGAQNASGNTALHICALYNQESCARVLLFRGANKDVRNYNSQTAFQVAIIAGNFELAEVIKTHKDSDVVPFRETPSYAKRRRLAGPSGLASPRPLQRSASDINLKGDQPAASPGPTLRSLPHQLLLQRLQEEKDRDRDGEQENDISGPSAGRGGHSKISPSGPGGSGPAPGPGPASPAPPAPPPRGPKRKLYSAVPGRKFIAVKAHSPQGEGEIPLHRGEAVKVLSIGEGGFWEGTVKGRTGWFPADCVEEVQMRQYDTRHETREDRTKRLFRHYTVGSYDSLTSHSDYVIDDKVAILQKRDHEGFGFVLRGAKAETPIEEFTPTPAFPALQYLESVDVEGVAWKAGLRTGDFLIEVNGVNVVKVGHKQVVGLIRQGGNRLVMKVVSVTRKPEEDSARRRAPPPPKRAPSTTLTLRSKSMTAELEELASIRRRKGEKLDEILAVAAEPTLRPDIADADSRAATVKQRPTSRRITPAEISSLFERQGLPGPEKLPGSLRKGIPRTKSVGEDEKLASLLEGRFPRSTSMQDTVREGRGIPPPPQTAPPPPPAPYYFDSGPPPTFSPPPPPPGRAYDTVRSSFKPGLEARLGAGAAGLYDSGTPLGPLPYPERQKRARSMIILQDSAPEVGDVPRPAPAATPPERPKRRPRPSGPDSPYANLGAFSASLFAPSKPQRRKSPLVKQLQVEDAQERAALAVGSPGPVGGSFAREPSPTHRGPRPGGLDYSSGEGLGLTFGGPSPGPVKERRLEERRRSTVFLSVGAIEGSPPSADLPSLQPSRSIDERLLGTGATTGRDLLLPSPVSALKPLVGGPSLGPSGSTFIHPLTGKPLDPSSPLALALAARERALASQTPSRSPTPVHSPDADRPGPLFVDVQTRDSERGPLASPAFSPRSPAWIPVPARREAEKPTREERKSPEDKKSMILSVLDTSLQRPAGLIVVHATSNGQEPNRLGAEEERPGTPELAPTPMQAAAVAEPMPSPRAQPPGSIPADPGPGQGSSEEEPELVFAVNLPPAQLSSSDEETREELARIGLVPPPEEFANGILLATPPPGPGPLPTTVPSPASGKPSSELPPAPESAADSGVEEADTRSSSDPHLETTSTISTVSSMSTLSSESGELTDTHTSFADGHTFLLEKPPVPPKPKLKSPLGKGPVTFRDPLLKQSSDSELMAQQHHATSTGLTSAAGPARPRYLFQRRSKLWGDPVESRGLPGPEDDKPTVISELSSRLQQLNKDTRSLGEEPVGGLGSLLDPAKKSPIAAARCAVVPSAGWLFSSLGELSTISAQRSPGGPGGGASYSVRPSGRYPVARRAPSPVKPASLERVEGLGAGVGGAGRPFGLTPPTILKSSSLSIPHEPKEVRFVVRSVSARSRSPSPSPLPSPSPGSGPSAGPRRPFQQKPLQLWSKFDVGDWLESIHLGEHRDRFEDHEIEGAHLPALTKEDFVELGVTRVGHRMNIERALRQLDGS
UniProt P62834: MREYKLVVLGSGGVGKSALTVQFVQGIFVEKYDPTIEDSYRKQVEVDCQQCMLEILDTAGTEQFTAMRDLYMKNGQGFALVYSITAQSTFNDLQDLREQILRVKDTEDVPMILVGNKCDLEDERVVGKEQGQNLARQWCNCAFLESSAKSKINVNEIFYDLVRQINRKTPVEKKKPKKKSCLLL

Molecular target: mRFP-tagged Shank3 N-terminus (SPN + Ank domains) (rat) (UniProt Q9JLU4)
Assay: co-IP; mRFP-tagged Shank N-termini coexpressed in 293T cells with T7-αCaMKII and/or HA-tagged G12V G-proteins; precipitated with RFP-trap beads, 2 h at 4 °C; IP buffer 50 mM Tris-HCl pH 8, 120 mM NaCl, 0.5% NP40, 1 mM EDTA; Western blot

## HA-tagged Rap1a G12V (constitutively active) (from UniProt P62834 1-184)
  binding: binds
